Measured values as given in PMC10163288.
This is one part of the list.

B1: il2ra_site1_1z92_sap_11_mot_dddd11d5de81826a7497a0a2545a4374_0001_1_af2_000000029_0001_35_49_H_._f9a7eb7446a159d83fbdd9ee03297373_0001_0001_0000200028_0000001_0 … (protein)
chain: SNELEEEIKEAIEKNDEELLKEILELLERIAGDPRLARQFLAQLIRRLLGDPEKAKEIVERIARR
B2: il2ra_site1_2b5i_normal_mot_22370d59370c406a0c205a431f537cfa_0001_af2_000000027_0001_1_31_H_._HHH_b2_07174_0001_0000500033_0000001_0_af2pred_0001_af2pred_1 (protein)
chain: SSSSSEAERLAEIVFELAEEFGLDTEQFNELARLASRLAFRGVSEEEIEKLLEELAERLSSSSSS
B3: il2ra_site2_2erj_sap_26_mot_HHH_b1_08228_af2_000000209_0001_42_55_H_._HHH_b2_05976_0001_0000200006_0000001_0_0001 (protein)
chain: DKAEEIVEEILRLVEEDSEEAREEVRRILEEVAKDAELSRRVLELAREDPRLQLAFYRAMRIAFS
B4: il2ra_site2_3nfp_normal_mot_HHH_b1_00660_af2_000000090_0001_40_57_H_._HHH_b1_06964_0001_0000100002_0000001_0_af2pred_0001_1_af2pred_swapped (protein)
chain: SSSSSEEEKQVEELLRRAEELLERGDPEEAREVVEEAALIAAELNNHELFALIIELLEKIDSSSS
B5: il2ra_site2_2erj_sap_21_mot_HHH_b1_05735_000000112_0001_20_37_H_._520760a1b3033c0d7e8c6ec61dbb0d93_0001_1_0001_0000200013_0000001_0_0001 (protein)
chain: SSSSSSDLEELAVEAVELANEGNPEEARKVVEEAIELAEEEGDEYALRYLELALEDIRSSSSSSS
B6: il2ra_site1_2b5i_normal_mot_f5ff40796168375b462bec8614a1db4a_0001_1_000000138_0001_53_65_H_._HHH_b2_06782_0001_0000300019_0000001_1_af2pred_0001_af2pred_1 (protein)
chain: SSSDFKEESAKELLKHAEELYKKGNPERARAVFFLALAAARRGGDEELLEEIRELLERLEKSSSS
B7: il2ra_site1_2b5i_normal_mot_HHH_b2_04910_000000118_0001_1_19_H_._HHH_b2_06462_af2_0001_0000100001_0000001_0_af2pred_0001_af2pred (protein)
chain: SSSSDKREALELLEEANKLAQNGNPEEAEKVAEEALRLAEEGGNKALAKSIRVAVRQLRLSSSSS
B8: il2ra_site1_2b5i_normal_mot_HHH_b2_04910_000000118_0001_1_19_H_._HHH_b1_03416_0001_0000100004_0000001_0_af2pred_dldesign_0_af2pred (protein)
chain: SSSDAALAREARELFLKANELKQAGKEEEALKLLEKARELAEAGGAPLLARMIDIAIENVKSSSS
B9: il2ra_site1_2b5i_sap_10_mot_HHH_b2_04633_000000016_0001_38_52_H_._HHH_b2_03268_af2_0001_0000100013_0000001_0_0001_af2pred_0001_af2pred_1 (protein)
chain: SSSSSSAERIARWAFELAEELVEEGDDEQVKLILEQMEELAELLGDPRIRELVEELQRRLSSSSS
B10: il2ra_site1_3nfp_normal_mot_86920ccf215a9397388743310839e631_0001_1_000000296_0001_18_34_H_._b29dd7dff93b1ac3f1fd774082f773f6_0001_0002_0000300020_0000001_0 (protein)
chain: SLEEELKRLVEEGDPEELKRILEELIREAEEKHDPRLAHEVLRLIAKLDRLGDPAAKLAYEIIAK
B11: il2ra_site2_3nfp_normal_mot_HHH_b2_08209_000000146_0001_1_18_H_._HHH_b1_00902_af2_0001_0000400038_0000001_0 (protein)
chain: SSSSSDEEEVERRVKELLEEAERVSEEEAREILKEATNLAYELRDFELFALIADLRSELASSSSS
B12: il2ra_site2_3nfp_sap_19_mot_HHH_b2_05281_000000198_0001_39_56_H_._b8f5d3c2707715a5215f600c9304175e_0001_1_0001_0000200006_0000001_0_0001 (protein)
chain: SSSSDEEVREEVEELLEQAKRIEDEEEVRELLARAVRIAWENNDEELFFEIAEVAFELMQSSSSS
B13: il2ra_site1_3nfp_sap_14_mot_HHH_b1_02075_af2_000000035_0001_1_18_H_._812af5c65f29141b25d3ed263bec1fb2_0001_1_af2_0001_0000200009_0000001_0_0001 (protein)
chain: SSSSDLEEEVEELQRELERAIEEGDFKLAEEIFRRLMELARENNDIEIAEEAYRLVHEHVKSSSS
B14: il2ra_site1_1z92_normal_mot_HHH_b1_03515_000000289_0001_1_19_H_._HHH_b2_07175_0001_0000100001_0000001_0 (protein)
chain: SSSSDRLERAAEIIVRVAVEANGLSEEQEKELEELARELVERGLDPLEIIKLLDRLAAELSSSSS
B15: il2ra_site1_3nfp_normal_mot_HHH_b1_04049_af2_000000244_0001_42_55_H_._HHH_b1_01786_0001_0000400012_0000001_0_af2pred_0001_af2pred (protein)
chain: SSSSDDKKRIQKLLREIMRLSKEGDEEEAEKLLEEVEELAREAGDPVAELLVELLKKILNSSSSS
B16: il2ra_site1_3nfp_sap_8_mot_ems_3hC_617_000000125_0001_25_41_H_._HHH_b1_04051_af2_0001_0000100005_0000001_0_0001_af2pred_0001_af2pred_1_swapped (protein)
chain: SSSSNEVSRRIDELLRRAAELAKQGDPEEAEKLLEEAQELAEEAGSPIAEKLVELVAKHLSSSSS
B17: il2ra_site2_3nfp_sap_15_mot_HHH_b1_03544_000000039_0001_44_57_H_._HHH_b2_05387_0001_0000300014_0000001_0_0001 (protein)
chain: SVEEVLRALKRSGDPRLEKLAEEVEELLRRGIPPEEIREELAREAAEERDHLVFIVASLLASLIA
B18: il2ra_site1_1z92_sap_17_mot_HHH_b1_06709_000000271_0001_41_56_H_._HHH_b2_07927_af2_0001_0000100002_0000001_0_0001_af2pred_0001_af2pred_1 (protein)
chain: SWKEFLAEQLRRKPPESVEKLLRKSKEAAKRAGTPPEEIREILEELAELAGDPEVEKIVEELIKP

molecular target: il2ra, P01589; assay: yeast display titration

Apparent Kd, inactive:
B1 no binding seen
B2 no binding seen
B3 no binding seen
B4 no binding seen
B5 no binding seen
B6 no binding seen
B7 no binding seen
B8 no binding seen
B9 no binding seen
B10 no binding seen
B11 no binding seen
B12 no binding seen
B13 no binding seen
B14 no binding seen
B15 no binding seen
B16 no binding seen
B17 > 1.5 µM
B18 no binding seen

For reference, some entries already given.
Apparent Kd, inactive:
B8 no binding seen
B9 no binding seen
